Measured values published in PMC10014099.

Chains of the proteins cited; added tags and fusions are not shown.
UniProt P0DMV8: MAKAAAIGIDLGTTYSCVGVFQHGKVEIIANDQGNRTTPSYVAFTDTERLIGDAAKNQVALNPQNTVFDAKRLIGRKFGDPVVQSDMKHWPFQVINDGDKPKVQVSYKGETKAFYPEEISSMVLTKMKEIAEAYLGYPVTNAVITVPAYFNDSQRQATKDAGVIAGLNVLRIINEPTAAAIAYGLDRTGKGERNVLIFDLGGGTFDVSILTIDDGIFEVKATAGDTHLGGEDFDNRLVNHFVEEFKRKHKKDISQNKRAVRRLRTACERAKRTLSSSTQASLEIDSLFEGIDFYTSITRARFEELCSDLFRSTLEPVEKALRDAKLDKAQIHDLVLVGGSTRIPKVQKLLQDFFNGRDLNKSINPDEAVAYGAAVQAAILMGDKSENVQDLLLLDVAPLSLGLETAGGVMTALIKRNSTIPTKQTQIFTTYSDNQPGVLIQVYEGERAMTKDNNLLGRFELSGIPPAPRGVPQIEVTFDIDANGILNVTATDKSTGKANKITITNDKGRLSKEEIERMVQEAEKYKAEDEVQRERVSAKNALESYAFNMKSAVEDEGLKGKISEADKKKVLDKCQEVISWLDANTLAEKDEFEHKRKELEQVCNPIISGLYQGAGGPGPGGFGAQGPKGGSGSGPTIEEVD

Columns and labels:
BirA-Plek2 [1] = target: T1, BirA-Plek2 (UniProt Q9WV52); experiment: proximity labelling; 293T cells expressing BirA-Plek2, biotin, streptavidin magnetic beads; band around 70 kDa cut out and analysed by mass spectrometry
T1 sequence: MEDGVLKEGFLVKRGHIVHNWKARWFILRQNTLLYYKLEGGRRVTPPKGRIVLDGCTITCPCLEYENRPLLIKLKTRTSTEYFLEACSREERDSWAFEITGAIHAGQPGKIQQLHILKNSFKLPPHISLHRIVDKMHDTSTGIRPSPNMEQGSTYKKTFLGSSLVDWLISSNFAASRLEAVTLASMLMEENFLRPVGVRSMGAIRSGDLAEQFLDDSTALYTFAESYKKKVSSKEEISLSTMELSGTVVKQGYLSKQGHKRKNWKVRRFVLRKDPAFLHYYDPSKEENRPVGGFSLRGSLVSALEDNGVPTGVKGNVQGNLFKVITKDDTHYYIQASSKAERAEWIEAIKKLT

BirA-Plek2 [2] = target: T1, BirA-Plek2; experiment: proximity labelling; 293T cells transfected with BirA-Plek2 and incubated with biotin (50 uM), bead-conjugated streptavidin pull-down, Western blot after SDS-PAGE

## Hsp72 (from UniProt P0DMV8 1-641)
BirA-Plek2 [1]
  binding: binds
BirA-Plek2 [2]
  binding: binds

Results are given in words; binding and its absence hold for the method and conditions named. Binding seen in cells or lysates may run through a third protein. Here binding means that the protein was enriched with, or labelled near, the bait; the list need not be complete.
